This passage reports binding results from article PMC5640428.

No constants are given. Whether binding was seen depends on the method and setting. Binding seen in cells or lysates may run through a third protein. Here binding means that the protein was enriched with, or labelled near, the bait; the list need not be complete.

The experiment concerns the target T1, native KCC2 (K+-Cl- cotransporter KCC2) (mouse (endogenous in brain)) (UniProt Q91V14).
T1 sequence: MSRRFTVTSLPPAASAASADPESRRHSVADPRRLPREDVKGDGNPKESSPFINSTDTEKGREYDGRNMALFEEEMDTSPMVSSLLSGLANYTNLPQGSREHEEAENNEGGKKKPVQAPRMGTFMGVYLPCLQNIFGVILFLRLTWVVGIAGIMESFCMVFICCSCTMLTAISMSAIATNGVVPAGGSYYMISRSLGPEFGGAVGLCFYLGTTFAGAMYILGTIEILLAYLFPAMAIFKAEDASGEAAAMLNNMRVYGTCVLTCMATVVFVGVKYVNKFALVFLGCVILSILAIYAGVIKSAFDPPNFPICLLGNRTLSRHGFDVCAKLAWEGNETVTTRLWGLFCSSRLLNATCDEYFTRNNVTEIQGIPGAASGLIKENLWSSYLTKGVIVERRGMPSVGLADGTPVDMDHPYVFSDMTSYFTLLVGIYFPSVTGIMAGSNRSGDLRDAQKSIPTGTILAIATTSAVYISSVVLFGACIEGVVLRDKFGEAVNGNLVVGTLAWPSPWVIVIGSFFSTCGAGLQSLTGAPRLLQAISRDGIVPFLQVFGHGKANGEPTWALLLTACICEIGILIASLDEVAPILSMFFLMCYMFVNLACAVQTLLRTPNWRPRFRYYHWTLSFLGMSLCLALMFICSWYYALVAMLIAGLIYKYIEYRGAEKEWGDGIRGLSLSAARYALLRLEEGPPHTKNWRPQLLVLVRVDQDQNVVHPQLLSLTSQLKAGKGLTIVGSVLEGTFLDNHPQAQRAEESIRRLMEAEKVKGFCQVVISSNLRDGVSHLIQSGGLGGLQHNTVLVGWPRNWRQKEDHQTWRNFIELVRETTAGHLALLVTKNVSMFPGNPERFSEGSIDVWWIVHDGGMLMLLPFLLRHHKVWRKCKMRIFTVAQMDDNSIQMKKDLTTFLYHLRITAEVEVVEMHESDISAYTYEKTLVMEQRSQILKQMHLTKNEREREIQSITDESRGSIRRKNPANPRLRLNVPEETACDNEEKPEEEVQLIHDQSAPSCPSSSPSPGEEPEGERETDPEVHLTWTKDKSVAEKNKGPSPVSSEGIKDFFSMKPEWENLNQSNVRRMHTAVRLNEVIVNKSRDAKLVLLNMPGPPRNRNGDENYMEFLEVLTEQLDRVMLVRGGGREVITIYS
The experiment in a line: affinity purification with mass spectrometry; anti-KCC2 antibodies (C-terminal, N-terminal KCC2b, pS940) cross-linked with DMP to GammaBind IgG beads; C12E9-solubilised whole-brain membrane fractions of P5 and P50 mice; 4 hr, 4°C; parallel IgG/IgY controls.

B1: CANX (protein, UniProt P35564 21-591)
chain: HDGHDDDAIDIEDDLDDVIEEVEDSKSKSDASTPPSPKVTYKAPVPTGEVYFADSFDRGSLSGWILSKAKKDDTDDEIAKYDGKWEVDEMKETKLPGDKGLVLMSRAKHHAISAKLNKPFLFDTKPLIVQYEVNFQNGIECGGAYVKLLSKTAELSLDQFHDKTPYTIMFGPDKCGEDYKLHFIFRHKNPKTGVYEEKHAKRPDADLKTYFTDKKTHLYTLILNPDNSFEILVDQSVVNSGNLLNDMTPPVNPSREIEDPEDRKPEDWDERPKIADPDAVKPDDWDEDAPSKIPDEEATKPEGWLDDEPEYIPDPDAEKPEDWDEDMDGEWEAPQIANPKCESAPGCGVWQRPMIDNPNYKGKWKPPMIDNPNYQGIWKPRKIPNPDFFEDLEPFKMTPFSAIGLELWSMTSDIFFDNFIISGDRRVVDDWANDGWGLKKAADGAAEPGVVLQMLEAAEERPWLWVVYILTVALPVFLVILFCCSGKKQSNAMEYKKTDAPQPDVKDEEGKEEEKNKRDEEEEEEKLEEKQKSDAEEDGVTGSQDEEDSKPKAEEDEILNRSPRNRKPRRE
As to B1, the binding entry is on record as “binds”.

B2: INA (protein, UniProt P46660 1-501)
chain: MSFGSEHYLCSASSYRKVFGDSSRLSARLSGPGGSGSFRSQSLSRSNVASTAACSSASSLGLGLAYRRLPASDGLDLSQAAARTNEYKIIRTNEKEQLQGLNDRFAVFIEKVHQLETQNRALEAELAALRQRHAEPSRVGELFQRELRELRAQLEEASSARAQALLERDGLAEEVQRLRARCEEESRGREGAERALKAQQRDVDGATLARLDLEKKVESLLDELAFVRQVHDEEVAELLATLQASSQAAAEVDVAVAKPDLTSALREIRAQYESLAAKNLQSAEEWYKSKFANLNEQAARSTEAIRASREEIHEYRRQLQARTIEIEGLRGANESLERQILELEERHSAEVAGYQDSIGQLESDLRNTKSEMARHLREYQDLLNVKMALDIEIAAYRKLLEGEETRFSTGGLSISGLNPLPNPSYLLPPRILSSTASKVSSAGLSLKKEEEEEEEEASKEVSKKTSKVGEGFEETLGEAVISTKKTGKSATEESTSSSQKM
Take B2: the binding result is on record as “binds”.

B3: YWHAQ (protein, UniProt P68254 1-245)
chain: MEKTELIQKAKLAEQAERYDDMATCMKAVTEQGAELSNEERNLLSVAYKNVVGGRRSAWRVISSIEQKTDTSDKKLQLIKDYREKVESELRSICTTVLELLDKYLIANATNPESKVFYLKMKGDYFRYLAEVACGDDRKQTIENSQGAYQEAFDISKKEMQPTHPIRLGLALNFSVFYYEILNNPELACTLAKTAFDEAIAELDTLNEDSYKDSTLIMQLLRDNLTLWTSDSAGEECDAAEGAEN
For the molecule B3, the binding result is “binds”.

B4: MDH2 (protein, UniProt P08249 25-338)
chain: AKVAVLGASGGIGQPLSLLLKNSPLVSRLTLYDIAHTPGVAADLSHIETRANVKGYLGPEQLPDCLKGCDVVVIPAGVPRKPGMTRDDLFNTNATIVATLTAACAQHCPEAMVCIIANPVNSTIPITAEVFKKHGVYNPNKIFGVTTLDIVRANTFVAELKGLDPARVNVPVIGGHAGKTIIPLISQCTPKVDFPQDQLATLTGRIQEAGTEVVKAKAGAGSATLSMAYAGARFVFSLVDAMNGKEGVVECSFVQSKETECTYFSTPLLLGKKGLEKNLGIGKITPFEEKMIAEAIPELKASIKKGEDFVKNMK
For B4, the binding entry is “binds”.

B5: CMPK1 (protein, UniProt Q9DBP5 1-196)
chain: MKPLVVFVLGGPGAGKGTQCARIVEKYGYTHLSAGELLRDERKNPDSQYGELIEKYIKEGKIVPVEITISLLKREMDQTMAANAQKNKFLIDGFPRNQDNLQGWNKTMDGKADVSFVLFFDCNNEICIERCLERGKSSGRSDDNRESLEKRIQTYLESTKPIIDLYEEMGKVKKIDASKSVDEVFGEVVKIFDKEG
With B5, the binding result is “binds”.

B6: STRN3 (protein, UniProt Q9ERG2 1-796)
chain: MDELAGGGGGGQGMAAPPRPQQGPGGNLSLPPGANGAPGGGGPPAAEAAGPPAGPELSRPQQYTIPGILHYIQHEWARFEMERAHWEVERAELQARIAFLQGERKGQENLKKDLVRRIKMLEYALKQERAKYHKLKYGTELNQGDLKMPTFESEETKDVEAPPAPQNSQLTWKQGRQLLRQYLQEVGYTDTILDVRSQRVRSLLGLSNSEPNGSVEAKNLEQILNGGESPKQKGQEIKRPPGDVLETFNFLENADDSDEEENDMIEGIPEGKDKLRIHKHKIGNEGLAADLTDDPDTEEALKEFDFLVTAEDGEGAGEARSSGDGTEWDKDDLSPTAEVWDVDQGLISKLKEQYKKERKGKKGVKRVNRTNLCDMITDLGDDELPHIPSGIINQSRSASTRMADHEGARAEEAEPITFPSGGGKSFIMGSDDVLLSVLGLGDLADLTVTNDADYSYDLPANKDAFRKTWNPKYTLRSHFDGVRALAFHPVEPVLVTASEDHTLKLWNLQKTVPAKKSASLDVEPIYTFRAHIGPVLSLAISSNGEQCFSGGIDATIQWWNMPSPNVDPYDTYESNVLAGTLVAHTDAVWGLAYSGIKNQLLSCSADGTIRLWNPQEKLPCVCTYNGDKEHGIPTSVDFIGCDPAHMVTSFNTGSAVIYDLETSQSLVMLSSQVDSGLQSSNHINRVVSHPTLPVTITAHEDRHIKFFDNKTGKMIHSMVAHLDAVTSLAVDPNGIYLMSGSHDCSIRLWNLDSKTCVQEITAHRKKLDESIYDVAFHPSKAYIASAGADALAKVFV
For the molecule B6, the binding entry is “binds”.

B7: MAG (protein, UniProt P20917 20-627)
chain: GHWGAWMPSTISAFEGTCVSIPCRFDFPDELRPAVVHGVWYFNSPYPKNYPPVVFKSRTQVVHESFQGRSRLLGDLGLRNCTLLLSTLSPELGGKYYFRGDLGGYNQYTFSEHSVLDIVNTPNIVVPPEVVAGTEVEVSCMVPDNCPELRPELSWLGHEGLGEPTVLGRLREDEGTWVQVSLLHFVPTREANGHRLGCQAAFPNTTLQFEGYASLDVKYPPVIVEMNSSVEAIEGSHVSLLCGADSNPPPLLTWMRDGMVLREAVAKSLYLDLEEVTPGEDGVYACLAENAYGQDNRTVELSVMYAPWKPTVNGTVVAVEGETVSILCSTQSNPDPILTIFKEKQILATVIYESQLQLELPAVTPEDDGEYWCVAENQYGQRATAFNLSVEFAPIILLESHCAAARDTVQCLCVVKSNPEPSVAFELPSRNVTVNETEREFVYSERSGLLLTSILTIRGQAQAPPRVICTSRNLYGTQSLELPFQGAHRLMWAKIGPVGAVVAFAILIAIVCYITQTRRKKNVTESSSFSGGDNPHVLYSPEFRISGAPDKYESEKQRLGSERRLLGLRGESPELDLSYSHSDLGKRPTKDSYTLTEELAEYAEIRVK
Take B7: the binding result is given as “binds”.

B8: APBA1 (protein, UniProt B2RUJ5 1-842)
chain: MNHLEGSAEVEVADEAPGGEVNESVEADLEHPEVVEGQQPSPSPPPPAGHEPEDHRGHPAPPPPPPPQEEEEEERGECLARSASTESGFHNHTDTAEGDVLAAARDGYEAERAQDADDESAYAVQYRPEAEEYTEQAEAEHVEAAQRRALPNHLHFHSLEHEEAMNAAYSGYVYTHRLFHRAEDEPYAEPYADYGGLQEHVYEEIGDAPELEARDGLRLYERERDEAAAYRQEALGARLHHYDERSDGESDSPEKEAEFAPYPRMDSYEQEEDIDQIVAEVKQSMSSQSLDKAAEDMPEAEQDLERAPTPGGGHPDSPGLPAPAGQQQRVVGTPGGSEVGQRYSKEKRDAISLAIKDIKEAIEEVKTRTIRSPYTPDEPKEPIWVMRQDISPTRDCDDQRPVDGDSPSPGSSSPLGAESSSIPLHPGDPTEASTNKESRKSLASFPTYVEVPGPCDPEDLIDGIIFAANYLGSTQLLSDKTPSKNVRMMQAQEAVSRIKTAQKLAKSRKKAPEGESQPMTEVDLFISTQRIKVLNADTQEPMMDHPLRTISYIADIGNIVVLMARRRMPRSNSQENVEASHPSQDGKRQYKMICHVFESEDAQLIAQSIGQAFSVAYQEFLRANGINPEDLSQKEYSDLLNTQDMYNDDLIHFSKSENCKDVFIEKQKGEILGVVIVESGWGSILPTVIIANMMHGGPAEKSGKLNIGDQIMSINGTSLVGLPLSTCQSIIKGLKNQSRVKLNIVRCPPVTTVLIRRPDLRYQLGFSVQNGIICSLMRGGIAERGGVRVGHRIIEINGQSVVATPHEKIVHILSNAVGEIHMKTMPAAMYRLLTAQEQPVYI
On to B8, for which the binding entry is reported as “binds”.

B9: STOML2 (protein, UniProt Q99JB2 29-353)
chain: SSGLPRNTVILFVPQQEAWVVERMGRFHRILEPGLNVLIPVLDRIRYVQSLKEIVINVPEQSAVTLDNVTLQIDGVLYLRIMDPYKASYGVEDPEYAVTQLAQTTMRSELGKLSLDKVFRERESLNANIVDAINQAADCWGIRCLRYEIKDIHVPPRVKESMQMQVEAERRKRATVLESEGTRESAINVAEGKKQAQILASEAEKAEQINQAAGEASAVLAKAKAKAEAIRILAGALTQHNGDAAASLTVAEQYVSAFSKLAKDSNTVLLPSNPSDVTSMVAQAMGVYGALTKAPVPGAQNSSQSRRDVQATDTSIEELGRVKLS
Turning to B9, the binding entry is listed as “binds”.
